{"source": "PubChem BioAssay AID504793 (Drosophila RNAi Screening Center, 2011)", "assay": "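Genes required for cells to halt at G2/M after double-strand DNA breaks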 (primary screen)", "system": "Drosophila S2R+ cells", "reagents": "long dsRNA against Drosophila genes, about 0.25 µg dsRNA per well", "duration": "4 days of dsRNA, then 4 hours of drug before read-out", "conditions": "doxorubicin 0.5 µM for 4 hours to cause double-strand breaks, in cells also given a low, harmless dose of dsRNA against nbs to sensitise the assay", "read-out": "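Per-well count of mitotic cells stained for phospho-histone H3 after doxorubicin exposure, used as mitotic index; counts are raw and not normalised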", "direction": "mitotic cells: higher = more cells in mitosis, weaker G2 arrest", "active means": "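Genes are called active only when high mitotic counts were reproduced with independent dsRNAs and mitosis was checked for delay without damage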", "meaning of the calls": "active = confirmed in follow-up tests; inactive = not confirmed", "note": "In all, the deposit lists about 23,000 reagents; this is a random part of those that have a named target and a result. Of all reagents, 62 (0.27%) were called active. 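Calls come from follow-up tests whose scores are not deposited, so confirmed genes may have low counts here; counts are not normalised per plate.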 Raw values are not corrected between plates. A plus sign joins genes that one reagent is predicted to hit. No sequences are given here."}
{"predicted target": "Ir8a (Ionotropic receptor 8a)", "amplicon": "DRSC17817", "mitotic cells, replicate 1": 5, "outcome": "inactive"}
{"predicted target": "Ir8a (Ionotropic receptor 8a)", "amplicon": "DRSC17869", "mitotic cells, replicate 1": 9, "outcome": "inactive"}
{"predicted target": "Dh31 (Diuretic hormone 31)", "amplicon": "DRSC02196", "mitotic cells, replicate 1": 6, "outcome": "inactive"}
{"predicted target": "Cpr65Ea (Cuticular protein 65Ea)", "amplicon": "DRSC11027", "mitotic cells, replicate 1": 5, "outcome": "inactive"}
{"predicted target": "Cpr65Ea (Cuticular protein 65Ea)", "amplicon": "DRSC25692", "mitotic cells, replicate 1": 6, "outcome": "inactive"}
{"predicted target": "mib1 (mind bomb 1)", "amplicon": "DRSC10550", "mitotic cells, replicate 1": 8, "outcome": "inactive"}
{"predicted target": "CycT (Cyclin T)", "amplicon": "DRSC11124", "mitotic cells, replicate 1": 2, "outcome": "inactive"}
{"predicted target": "CycT (Cyclin T)", "amplicon": "DRSC23304", "mitotic cells, replicate 1": 4, "outcome": "inactive"}
{"predicted target": "CycT (Cyclin T)", "amplicon": "DRSC29416", "mitotic cells, replicate 1": 10, "outcome": "inactive"}
{"predicted target": "Acsl (Acyl-CoA synthetase long-chain)", "amplicon": "DRSC07252", "mitotic cells, replicate 1": 10, "outcome": "inactive"}
{"predicted target": "CG15403", "amplicon": "DRSC00417", "mitotic cells, replicate 1": 3, "outcome": "inactive"}
{"predicted target": "srw (shrew)", "amplicon": "DRSC08201", "mitotic cells, replicate 1": 8, "outcome": "inactive"}
{"predicted target": "His3:CG33818 + His3:CG33857 + His3:CG33806 + 20 more", "amplicon": "DRSC21267", "mitotic cells, replicate 1": 5, "outcome": "inactive"}
{"predicted target": "CG8229 + CG33199", "amplicon": "DRSC05134", "mitotic cells, replicate 1": 8, "outcome": "inactive"}
{"predicted target": "CG8229 + CG33199", "amplicon": "DRSC27680", "mitotic cells, replicate 1": 5, "outcome": "inactive"}
{"predicted target": "Pisd (Phosphatidylserine decarboxylase)", "amplicon": "DRSC15935", "mitotic cells, replicate 1": 6, "outcome": "inactive"}
{"predicted target": "CG32633", "amplicon": "DRSC18987", "mitotic cells, replicate 1": 4, "outcome": "inactive"}
{"predicted target": "CG12817 + CG12420", "amplicon": "DRSC22814", "mitotic cells, replicate 1": 10, "outcome": "inactive"}
{"predicted target": "Tsr1 (Tsr1 ribosome assembly factor)", "amplicon": "DRSC11821", "mitotic cells, replicate 1": 7, "outcome": "inactive"}
{"predicted target": "CG12310", "amplicon": "DRSC09878", "mitotic cells, replicate 1": 5, "outcome": "inactive"}
{"predicted target": "CG12310", "amplicon": "DRSC25358", "mitotic cells, replicate 1": 6, "outcome": "inactive"}
{"predicted target": "Spc25", "amplicon": "DRSC14164", "mitotic cells, replicate 1": 11, "outcome": "inactive"}
{"predicted target": "ATPsynE (ATP synthase, subunit E)", "amplicon": "DRSC15476", "mitotic cells, replicate 1": 11, "outcome": "inactive"}
{"predicted target": "ATPsynE (ATP synthase, subunit E)", "amplicon": "DRSC30103", "mitotic cells, replicate 1": 1, "outcome": "inactive"}

Copied from the listing (4 entries):
{"predicted target": "Ir8a (Ionotropic receptor 8a)", "amplicon": "DRSC17869", "mitotic cells, replicate 1": 9, "outcome": "inactive"}
{"predicted target": "Dh31 (Diuretic hormone 31)", "amplicon": "DRSC02196", "mitotic cells, replicate 1": 6, "outcome": "inactive"}
{"predicted target": "Cpr65Ea (Cuticular protein 65Ea)", "amplicon": "DRSC11027", "mitotic cells, replicate 1": 5, "outcome": "inactive"}
{"predicted target": "Cpr65Ea (Cuticular protein 65Ea)", "amplicon": "DRSC25692", "mitotic cells, replicate 1": 6, "outcome": "inactive"}
